Among the data in article PMC9070983 are binding values, retold here.

Amino acid sequences for entries named in this document (tags omitted).
UniProt Q04206: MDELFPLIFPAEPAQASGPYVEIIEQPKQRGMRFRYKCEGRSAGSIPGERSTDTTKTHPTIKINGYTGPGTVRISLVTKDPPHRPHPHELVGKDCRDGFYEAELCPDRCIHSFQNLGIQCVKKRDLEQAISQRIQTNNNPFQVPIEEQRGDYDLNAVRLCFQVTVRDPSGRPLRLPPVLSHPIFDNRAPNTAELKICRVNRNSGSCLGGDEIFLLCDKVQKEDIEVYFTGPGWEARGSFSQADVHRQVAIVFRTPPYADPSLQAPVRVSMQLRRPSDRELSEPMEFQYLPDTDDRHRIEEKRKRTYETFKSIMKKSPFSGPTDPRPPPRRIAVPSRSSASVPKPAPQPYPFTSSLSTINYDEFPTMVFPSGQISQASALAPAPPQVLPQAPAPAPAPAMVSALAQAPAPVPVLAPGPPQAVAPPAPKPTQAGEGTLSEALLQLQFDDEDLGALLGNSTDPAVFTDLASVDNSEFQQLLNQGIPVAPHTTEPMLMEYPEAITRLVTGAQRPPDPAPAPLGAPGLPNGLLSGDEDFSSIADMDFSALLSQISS

The target in the assay is T1, HIV-1 Tat-interacting protein 110 (Tip110) (UniProt Q15020).
T1 sequence: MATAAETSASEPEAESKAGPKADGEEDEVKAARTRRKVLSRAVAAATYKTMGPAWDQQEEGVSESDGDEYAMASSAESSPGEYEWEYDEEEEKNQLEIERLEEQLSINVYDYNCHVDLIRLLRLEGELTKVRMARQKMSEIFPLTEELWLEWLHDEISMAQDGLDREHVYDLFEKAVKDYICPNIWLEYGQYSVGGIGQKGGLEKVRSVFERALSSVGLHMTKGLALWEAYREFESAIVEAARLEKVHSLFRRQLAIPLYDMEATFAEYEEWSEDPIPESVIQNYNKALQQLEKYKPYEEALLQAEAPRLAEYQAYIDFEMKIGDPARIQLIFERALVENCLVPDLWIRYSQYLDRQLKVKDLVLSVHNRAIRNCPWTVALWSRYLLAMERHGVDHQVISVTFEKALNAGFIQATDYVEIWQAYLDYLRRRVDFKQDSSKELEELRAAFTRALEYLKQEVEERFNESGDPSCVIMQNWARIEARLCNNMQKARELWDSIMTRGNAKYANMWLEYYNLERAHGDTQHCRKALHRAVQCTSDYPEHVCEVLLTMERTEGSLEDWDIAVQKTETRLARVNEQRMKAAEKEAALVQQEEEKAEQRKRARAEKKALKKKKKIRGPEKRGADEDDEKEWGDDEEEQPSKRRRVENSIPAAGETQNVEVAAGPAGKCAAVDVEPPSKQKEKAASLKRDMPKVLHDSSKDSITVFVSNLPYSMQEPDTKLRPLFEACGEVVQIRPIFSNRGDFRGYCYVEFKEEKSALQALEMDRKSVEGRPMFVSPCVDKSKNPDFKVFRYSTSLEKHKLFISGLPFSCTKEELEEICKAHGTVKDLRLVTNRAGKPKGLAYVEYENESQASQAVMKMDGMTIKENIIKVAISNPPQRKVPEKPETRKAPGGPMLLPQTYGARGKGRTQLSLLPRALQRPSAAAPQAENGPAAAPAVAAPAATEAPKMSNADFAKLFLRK
In words: co-IP; 293T transfected with Tip110 or vector control, treated with TNF-α for 20 hr; 1 mg lysate with 1 μg primary antibody at 4°C overnight, protein A agarose beads; lysis buffer 50 mM Tris.HCl pH 8.0, 280 mM NaCl, 0.5% NP-40.

No constants are given. Whether binding was seen depends on the method and setting. In cells and extracts the contact can be indirect.

With NF-κB p65 (from UniProt Q04206 1-551), the binding result is on record as “no binding”.
